Laboratory results published in PubChem BioAssay AID2417 (National Center for Advancing Translational Sciences (NCATS), 2010).
About 4,300 (3.1%) of roughly 140,000 compounds were called active. This list was built around the results that the source calls inconclusive (neither active nor inactive); the mix of calls is not that of the screen.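 The calls were made as follows: active = readout at or below -70, meaning at least 70% loss of cells showing the perinucleolar compartment, a nuclear body marking cancer cells; inconclusive = readout between -30 and a set limit; inactive = the rest.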

assay: High Content Assay for Compounds that inhibit the Assembly of the Perinucleolar Compartment; details: PC3M PTB-GFP, PNC prevalence imaging, 16 h; at 10 µM; active compounds read low;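 also: plate controls were DMSO wells for no effect and camptothecin positive control wells for full effect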
How it was run: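 PC3M cells stably expressing PTB-GFP, 750–1000 cells/well, treated 16 h at 37 °C with compound (23 nl of library stock), in duplicate. After paraformaldehyde fixation and Hoechst stain, imaged at 20x; PNC prevalence scored by image analysis.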

SMILES | activity change (PNC), negative = inhibition
CC(Cc1ccccc1Sc1ccccc1)N(C)C (configuration not stated) | inconclusive: -47.6%
CCCN1CC(C)C(OC(C)=O)(c2ccccc2)CC1C (configuration not stated) | inconclusive: -52.7%
OC(c1ccccc1)(c1ccccc1)C1CCCN1 (configuration not stated) | inconclusive: -36.4%
O=C(c1cccn2c(=O)c3ccccc3nc12)N1CCC2(CC1)OCCO2 | inconclusive: -48.5%
CC(=NCCC1=CCCCC1)c1c(O)n(C)c(=O)n(C)c1=O | inconclusive: -38.2%
Cc1cc(C)n(CCOC(=O)C2C(C=C(Cl)Cl)C2(C)C)n1 (configuration not stated) | inconclusive: -68.6%
c1ccc2oc(N3CCNCC3)nc2c1 | inconclusive: -51.7%
CC(=O)c1ccc2c(c1)C1C(Cl)C(Sc3ccccc3[N+](=O)[O-])CC1C(C(=O)O)N2 (configuration not stated) | inactive: -4.05%
O=C(CCN1CCOCC1)NCC(=O)Nc1ccc(Br)cc1C(=O)c1ccccc1 | inactive: -7.84%
CN(C)C(=O)Oc1ccc(OCc2nc3ccccc3[nH]2)cc1 | inconclusive: -46.8%
Oc1c(Br)cc(Br)cc1CN1CCN(Cc2ccccc2)CC1 | inconclusive: -50.9%
CNCCc1c(C)n[nH]c1C | inconclusive: -44.1%
CCC(C)NS(=O)(=O)c1ccc(OCC(=O)N2CCN(CC)CC2)cc1 (configuration not stated) | inconclusive: -49.8%
O=[N+]([O-])/C=C1\NCCN1Cc1ccc(Cl)nc1 | inconclusive: -68.6%
Fc1ccc(N2CCN(Cc3ccc4c(c3)OCO4)CC2)cc1 | inconclusive: -49.9%
CCN(CC)S(=O)(=O)c1ccc(N=Cc2c(O)n(-c3ccccc3)c(=O)[nH]c2=O)cc1 | inconclusive: -62.6%
Cc1ccc(/C=C2\C(=O)NC(=O)N(CCc3ccc(F)cc3)C2=O)o1 | inconclusive: -35.7%
c1ccc2c3c([nH]c2c1)CNCC3 | inconclusive: -47.6%
Fc1ccc(C(OCCN2CCCC2)c2ccc(F)cc2)cc1 | inactive: -21.4%

SMILES | activity change (PNC), negative = inhibition
CCN1C(=O)NC(=O)/C(=C/c2cc(C)n(-c3sc(C)c(C)c3C#N)c2C)C1=O | inconclusive: -38.8%
CCOC(=O)C1CCN(C=C2C(=O)N(C)C(=S)N(C)C2=O)CC1 | inconclusive: -42.6%
COCCNC(=O)c1c(NC(=O)c2ccc(Br)o2)n(Cc2ccccc2)c2nc3ccccc3nc12 | inconclusive: -37.1%
CCCCNC(=O)Nc1ccc(C(O)(C(=O)OCC)C(F)(F)F)cc1 (configuration not stated) | inconclusive: -48.9%
Nc1c([N+](=O)[O-])cc(F)c(N2CCNCC2)c1Br | inconclusive: -33.5%
Cc1ccc2cccc(OC(=O)N3CCCC3)c2n1 | inconclusive: -35.3%
c1ccc2cc(CC3=NCCN3)ccc2c1 | inconclusive: -50%
CCCCCCOc1ccc(CN2CCN(CCO)CC2)cc1 | inactive: 18.8%
COC(=O)C1CN(C#N)N(c2ccc(Cl)cc2)C12c1ccccc1-c1ccccc12 (configuration not stated) | inconclusive: -54.6%
CC/C(=N\N1CCCCCC1)c1c(O)n(-c2ccc(C)cc2)c(=O)[nH]c1=O | inconclusive: -38.8%
O=c1[nH]c(=O)n(-c2ccc(Cl)cc2)c(O)c1C=Nc1ccc(S(=O)(=O)Nc2nccs2)cc1 | inconclusive: -47%
COC(=O)c1c(N)n(Cc2ccc(OC)cc2)c2nc3ccccc3nc12 | active: -81.6%
COc1ccccc1-n1c(-c2ccoc2)nc2ccccc2c1=O | inactive: 2.35%
CCN1CCN(S(=O)(=O)c2ccc(Cl)nc2)CC1 | inactive: 65.1%
COc1ccccc1OCCCn1cc(C(=O)c2ccco2)c2ccccc21 | inconclusive: -57.1%
CC(=NCc1ccc2c(c1)OCO2)c1c(O)n(C)c(=O)n(C)c1=O | inconclusive: -56%
C/C(=N\NC(=S)Nc1ccccc1)c1c(O)n(C)c(=O)n(C)c1=O | inactive: -0.91%
CN1CCN(c2c(N)c(=O)oc3ccccc23)CC1 | inconclusive: -31.8%
CC(=O)N1CCN(c2ccc(N=Cc3c(O)n(-c4ccc(Cl)cc4)c(=O)[nH]c3=O)cc2)CC1 | inconclusive: -39.4%

SMILES | activity change (PNC), negative = inhibition
OCC1(CO)COC(c2cccnc2)N1 (configuration not stated) | inconclusive: -54.9%
O=c1[nH]c(=O)n(-c2cccc3ccccc23)c(O)c1/C=N/N1CCCCC1c1cccnc1 (configuration not stated) | inconclusive: -39.8%
CN1CCN(c2ccc(N)cc2)CC1 | inactive: 25.4%
CCN1C(=O)/C(=C/c2ccc3c(c2)CCN3CCCCl)C(=O)NC1=S | active: -99.4%
CN(C(=O)CNC(=O)OCc1ccccc1)c1ccc(Br)cc1C(=O)c1ccccc1Cl | inconclusive: -75.8%
C=CCNC(=O)c1c(N)n(Cc2ccco2)c2nc3ccccc3nc12 | inconclusive: -39.3%
CCOC(=O)C(NC(C)=O)C(OC(C)=O)c1cccc(N(CCCl)CCCl)c1 (configuration not stated) | active: -119%
CN1C(=O)N(C)C(=O)C2(Cc3cc([N+](=O)[O-])ccc3N(C)C2c2ccccc2)C1=O (configuration not stated) | inconclusive: -46.5%
Cc1[nH]c2c(C(F)(F)F)cccc2c1CCN | inconclusive: -32.4%
CN(C)[C@@H]1C(=O)C(C(N)=O)=C(O)[C@@]2(O)C(=O)C3=C(O)c4c(O)cccc4[C@@](C)(O)[C@H]3[C@H](O)[C@@H]12 | inactive: 33.4%
CCOC(=O)C1=C(N)OC2=C(C(=O)CC(C)(C)C2)C12C(=O)Nc1ccccc12 (configuration not stated) | inconclusive: -49.6%
N#CSCC(=O)N1c2ccccc2CCc2ccccc21 | inconclusive: -39.2%
O=C(CN1CCCCC1)c1ccccc1Cl | inactive: 44.8%
CCC(C)N1C(=O)/C(=C\c2ccc(N3CCCCCC3)cc2)C(=O)NC1=S (configuration not stated) | inactive: -11.6%
CCC(=NCCCN1CCOCC1)c1c(O)n(Cc2ccccc2)c(=O)[nH]c1=O | inconclusive: -68.8%
Cc1ccc2c(c1)N(CCC(=O)N1CCC3(CC1)OCCO3)C(=O)CO2 | inactive: 3.88%
Fc1ccc(C2=CCN(C(c3ccc(Cl)cc3)c3nnnn3Cc3ccccc3)CC2)cc1 (configuration not stated) | inactive: -17.3%
Cc1ccc(C)c(NC2=NCCCS2)c1 | inconclusive: -54.8%
CCOP(=O)(OCC)C(O)c1ccc(OC)cc1OC (configuration not stated) | inconclusive: -74.4%

Part of the list above in order of formula weight, rising.
SMILES | activity change (PNC), negative = inhibition
CN1CCN(c2ccc(N)cc2)CC1 | inactive: 25.4%
Cc1[nH]c2c(C(F)(F)F)cccc2c1CCN | inconclusive: -32.4%
CCOC(=O)C1=C(N)OC2=C(C(=O)CC(C)(C)C2)C12C(=O)Nc1ccccc12 (configuration not stated) | inconclusive: -49.6%
CCC(C)N1C(=O)/C(=C\c2ccc(N3CCCCCC3)cc2)C(=O)NC1=S (configuration not stated) | inactive: -11.6%
CN1C(=O)N(C)C(=O)C2(Cc3cc([N+](=O)[O-])ccc3N(C)C2c2ccccc2)C1=O (configuration not stated) | inconclusive: -46.5%
